Test system: nitric oxide synthase (NOS)
Test: Nitric oxide synthase activity in brain regions, radiometric [3H]L-citrulline method
Type: in vivo, Wistar rats
Conditions: Group No. 2 (morphine)
Protocol: After the above experiments the rat brains were isolated and immediately placed in the ice cold 0.9% solution of sodium chloride. After cooling the following structures were isolated from the brain: cerebral cortex, hippocampus, mesencephalon, striatum, brainstem, hypothalamus and cerebellum. The isolated tissue was homogenized in a Potter S homogenizer for 3 minutes at 1500 rpm in 4-5 volumes of 20 mM HEPES (pH 7.5) at 4° C. […]
The activity of nitric oxide synthase (NOS) was determined using a radiometric method by the rate of L-citrulline accumulation in a reaction of [^3H] […]
The reaction was initiated by adding brain supernatant in the reaction medium containing 2 μCi/ml of [3H] […] After the sorption the radioactivity of the samples was determined on a scintillation counter SL-4000 (“Intertechnique”). The activity of Ca^2+-dependent and Ca^2+-independent NOS isoforms was determined by the difference of rates of [^3H]L-citrulline formation in three parallel samples containing 2 mM EDTA (Ca^2+ chelator), 2 mM EDTA+2 mM L-NAME (inhibitor all NOS isoforms) or without inhibitors. […]
The content of protein in the samples was determined by the Bradford method (Bradford M. M. A rapid and sensitive method for quantitation of microgram quantities of protein using the principle of protein binding . Anal. Biochem., 1976, V. 72, p. 248-254) using Coumassi dye. […]

## CN1CC[C@]23c4c5ccc(O)c4O[C@H]2[C@@H](O)C=C[C@H]3[C@H]1C5.Cl [morphine, morphine hydrochloride, reference compound]
  Activity of NOS, hippocampus: 3.10 ± 0.20 nmol/min/mg of protein
  Activity of NOS, striatum: 1.19 ± 0.14 nmol/min/mg of protein
